Data taken from ChEMBL document CHEMBL3988442, “University of Dundee, Small-Polar-MMV Screening Library” (2021).

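Whole-cell assay for inhibitors of Mycobacterium tuberculosis growth, labelled Cornell in the record; the read-out is not stated. The concentration is filed as 10 mM, unlikely as a test dose, so the dose is not known. The record gives no direction; compounds strong in two other growth screens of this library score well above the rest, so higher reads as stronger inhibition. Of about 53,000 compounds tested this way, about 900 (1.7%) reached 50% or more in at least one test.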

The filed quantity is “Percent Effect” (%).
The record does not define 0% and 100%; most values in the screen are far below 50% and negative numbers occur (in some assays of this library far below -100).
The compounds are a random part of those screened.

| Compound | effect |
|---|---|
| `CN(C)[C@H]1CCN(c2nc(C(C)(C)C)nc3c2cnn3C)C1` | 15.83 |
| `CC(C)OCc1ncn2c1CN(CCO)CCC2.O=C(O)C(F)(F)F` | 9.386 |
| `CN1CCN(C2CCN(CCOc3cccc(F)c3)CC2)C1=O` | -56 |
| `CCN(C(=O)COC)C(c1cccnc1)c1cc(C)cc(C)c1` (stereo not given) | -11.82 |
| `O=C(O)C1c2nc[nH]c2CCN1Cc1ccc(-c2ccccc2)s1` (stereo not given) | 6.157 |
| `O=C(CN1CCC2(CCCCC2)C1)NCC(F)(F)F` | 8.553 |
| `COC(=O)NCCC(=O)NC(c1ccc(Cl)cc1)C(F)(F)F` (stereo not given) | -15.46 |
| `CC(C)c1nccn1C1CCCN(C(=O)c2cccc3c2OCO3)C1` (stereo not given) | -0.439 |
| `O=C(Cn1ccc2ccccc21)N1CCC(Oc2cnccn2)CC1` | 24.96 |
| `O=C1N(Cc2cccnc2)CCC12CCCNC2` (stereo not given) | -3.885 |
| `COc1cccc2ccn(CC(=O)NC(C)C)c12` | 2.008 |
| `NCC(=O)N1CCC(c2cncc(Oc3cccnc3)n2)CC1` | -14.49 |
| `CC(C)NC(=O)C1c2c(ncn2C(C)C)CCN1Cc1ccccc1.O=C(O)C(F)(F)F` (stereo not given) | 9.861 |
| `COc1cc(C)cc(-c2nc3c([nH]2)CCNC3)c1OC` | 6.483 |
| `CNC(=O)COC1COC2(CCN(c3ccc(C)nn3)CC2)C1.O=C(O)C(F)(F)F` (stereo not given) | 13.88 |
| `O=C(Cn1cccnc1=O)NC(Cc1ccsc1)c1nccs1` (stereo not given) | -53.07 |
| `CC(Nc1cccc2c1OCCO2)C(=O)Nc1cccc(C#N)c1` (stereo not given) | -6.156 |
| `Cn1cc(NC(=O)c2cccc3cccnc23)ccc1=O` | 7.893 |
| `CC(C)C(=O)N1CCC2(CCN2CC2CC2)C1.O=C(O)C(F)(F)F` (stereo not given) | 20.88 |
| `Cc1c(C(=O)N2CCC2)nnn1-c1ccc2ncccc2c1` | 14.97 |
| `CC(C)N1CC2(CCC1=O)CCN(C(=O)c1cc(F)ccc1Cl)CC2` | 14.55 |
| `OC(CNCCc1nnc2ccccn12)c1ccc2c(c1)OCO2` (stereo not given) | 1.482 |
| `CCC(CC)C(O)CNC(=O)Nc1cc(C)nn1C` (stereo not given) | 21.74 |
| `[H][C@@]12COC[C@H](C(=O)N3CCCCO3)[C@]1([H])CN(C1CCOCC1)C2` | 1.672 |
| `O=C(O)C(F)(F)F.O=C(O)C(F)(F)F.[H][C@@]12CN(Cc3ccc(F)cc3)C[C@]1([H])OCCN2CC1CCCO1` (stereo not given in full) | 17.62 |
| `CCn1ncc(-c2cc(C(F)(F)F)nc(N3CCC(N)CC3)n2)c1C` | 50.19 |
| `CNC(=O)Cn1ccc2ccc(NC(=O)NC(C)C(C)C)cc21` (stereo not given) | 23.32 |
| `CCOCCOc1ccc(S(=O)(=O)N2CCc3c(nc[nH]c3=O)C2)cc1` | 5.653 |
| `CC(C(=O)N1CCCN(c2ncccc2C#N)CC1)n1ccnc1` (stereo not given) | 2.916 |
| `[H][C@@]12CCN(c3cnccn3)C[C@@]1(C(=O)O)CCCN2Cc1cccnc1` | -0.4483 |
| `O=C(CC1CSc2nccc(=O)n21)NCc1ccco1` (stereo not given) | -8.181 |
| `O=C(NCCn1nc2ccccn2c1=O)c1cc(-c2ccccc2)[nH]n1` | -35.82 |
| `[H][C@@]12CN(Cc3nccs3)C[C@H](C(=O)N3CCCC3)[C@]1([H])CCO2` | -24.73 |
| `O=C(c1cccnc1SC/C=C/c1ccccc1)N1CC[C@H](O)C1` | -23.27 |
| `O=C(O)C(F)(F)F.O=C(O)C(F)(F)F.[H][C@@]12CCC(=O)N(c3cnn(C)c3)[C@]1([H])CCN2CCc1ccccc1` | 1.528 |
| `Cc1nccn1C1CCCN(C(=O)c2ccc3c(c2)COC3)C1` (stereo not given) | 29.83 |
| `Cc1cc(C2CCN(S(=O)(=O)c3cn(C)cn3)CC2)ccn1` | -17.69 |
| `CCc1nc(-c2ccc(NC(=O)N3CCC4(CC3)OCCO4)cc2)no1` | 49.77 |
| `O=C(O)C(F)(F)F.O=C(O)C(F)(F)F.[H][C@@]12COC[C@]1(COCc1ccncc1)CN(Cc1cccc(OC)c1)C2` | 6.359 |
| `COc1cc(C)ccc1OCC(=O)NS(=O)(=O)c1cccnc1` | -3.186 |
| `CC(C)c1noc(-c2ccc(NC(=O)NCC(O)C(C)C)cc2)n1` (stereo not given) | 16.27 |
| `Cc1ccsc1C(=O)N1CCCc2c(c(=O)n(C)n2C)C1` | -10.29 |
| `Cc1ccc(N2CCCN(C(=O)c3n[nH]c4c3CCC4)CC2)nn1` | 19.39 |
| `Cc1nsc(N2CCCN(C(=O)CCc3ccsc3)CC2)n1` | -8.979 |
| `CN(C)CCN(C)C(=O)c1cn(CC2CCCCC2)nn1` | -1.176 |
| `COc1ccc2nnc(CCCC(=O)NCCc3ccncc3)n2n1` | 29.85 |
| `Cc1cccc(NC2CCN(C(=O)Nc3cn[nH]c3)CC2)n1` | 5.834 |
| `COc1ccc(C(=O)N2CCN(C(=O)c3csc(C(C)C)n3)CC2)cc1` | 1.584 |
| `Cc1nc2c(c(=O)[nH]1)CCN(C(=O)c1[nH]nc3c1CC(C)CC3)C2` (stereo not given) | -48.76 |
| `CN(CCCN1CCCCCC1)C(=O)c1ccccc1NCC(=O)O` | -8.092 |
| `O=C(CN1CCCCC1Cn1cncn1)NCCC1=CCCCC1` (stereo not given) | -45.75 |
| `O=C(O)C(F)(F)F.O=C(O)C(F)(F)F.[H][C@@]12CCN(C3CCOCC3)C[C@]1([H])OCCN(Cc1cccnc1)C2=O` | 4.957 |
| `CNc1oc(-c2ccc(S(=O)(=O)N(C)C)o2)nc1C#N` | 17.81 |
| `Cn1cc(CN2CCCC3(CCCCN3S(C)(=O)=O)C2)cn1.O=C(O)C(F)(F)F` (stereo not given) | -11.29 |
| `Cn1c(-c2ccccc2)nn(CCNS(=O)(=O)c2ccccc2Cl)c1=O` | 4.008 |
| `NC(=O)NC(=O)CCN1CCN(CC2CC2)c2ccccc21` | -7.228 |
| `CCc1ccc(CNC(=O)NCc2nnc3n2CCC3)s1` | -25.69 |
| `CN(C)CC1CN(Cc2ccc(F)cc2)Cc2nccn2C1.O=C(O)C(F)(F)F.O=C(O)C(F)(F)F` (stereo not given) | 24.07 |
| `[H][C@]12CC[C@]([H])(CN(S(=O)(=O)c3ccccc3)C1)N(Cc1cscn1)C2=O` | 6.319 |
| `COc1ccc(NC2CCCN(Cc3cnc(N(C)C)s3)C2)cc1` (stereo not given) | 47.8 |
| `O=C(O)C(F)(F)F.O=C(c1cscn1)N1CCc2ncc(CN3CCCC3)n2CC1` | -1.443 |
| `COC1CCCOC12CCN(C(=O)c1ccc3[nH]nnc3c1)CC2` (stereo not given) | 19.36 |
| `O=S(=O)(NCc1ccccc1Cn1cncn1)N1CCCCCC1` | -8.971 |
| `Cc1ncsc1-c1nnc(C2CCCN2C(=O)CCn2cccn2)o1` (stereo not given) | -43.97 |
| `O=C(COC(=O)Cc1cccs1)NCc1cccc(NC(=O)C2CC2)c1` | 49.79 |
| `Cc1nc(C)n(CC2CN(CCc3ccccn3)CCO2)n1` (stereo not given) | 1.033 |
| `COc1ccc(N2CCNC(C(N)=O)C2)cc1` (stereo not given) | -31.14 |
| `N#Cc1ccc(S(=O)(=O)NC(=O)c2ccc3c(c2)COC3)cc1` | -1.587 |
| `O=C(O)C(F)(F)F.[H][C@]12CCC[C@@]1(COCc1csc(C)n1)CN(Cc1nccs1)C2` | 4.803 |